Some of the results follow. Further columns of the screen follow, without active or inactive calls. Compounds called inactive in the main read-out are mostly missing here. Potencies come from curve fits of mixed quality, noted in brackets.
Assay: qHTS Assay to Find Inhibitors of Chronic Active B-Cell Receptor Signaling
Settings: ABC-DLBCL IkBa-CBG/CBR reporter, luminescence ratio (green luciferase fused to IkBa over red control in TMD8 lymphoma cells), 4 h
Summary of the method: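 Compounds up to 46 uM were incubated four hours with TMD8 cells whose green CBG68 luciferase is fused to IkappaBalpha; red CBR luminescence normalised the signal, and concentration-effect curves were fitted to fusion, red and ratio data.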

[1] = measured here: CBR red luminescence, cell number
[2] = measured here: IkBa-CBG green luminescence

SMILES | AC50 [1] | AC50 [2]
COc1ccc(N/C(C)=C/C(=O)c2ccccc2)cc1 | 2.06 µM [rising, partial curve, poor fit] | 
COc1cc(C)c(NC(=O)C(=S)NCc2ccccc2)cc1C | 10 µM [rising, partial curve] | 
COc1cc(/C=N/NC(=O)c2ccc(NS(=O)(=O)c3cccs3)cc2)cc(OC)c1O | 16.4 µM [falling, partial curve] | 
Cc1cc(-c2nnc(-c3cccc(Cl)c3)o2)no1 | 7.08 µM [rising, full curve, poor fit] | 
CC(/C=C/c1cccc([N+](=O)[O-])c1)=N\NC(=O)c1ccncc1 | 32.6 µM [falling, single point] | 
CC(=O)NCCSC(=O)c1ccc(F)cc1 | 23.1 µM [falling, single point] | 
COc1ccc(C)cc1N(CC(=O)NCCSCc1ccco1)S(=O)(=O)c1ccc(C)cc1 | 35.5 µM [falling, single point] | 
COc1ccc(NS(=O)(=O)c2ccc(NS(=O)(=O)c3ccc(SC)cc3)cc2)c(OC)c1 | 29.1 µM [falling, single point] | 
COc1ccc(-c2sc3cc(OC)c(OC)cc3c2C#CC(C)(C)O)cc1 | 16.4 µM [rising, partial curve] | 18.4 µM [falling, partial curve, poor fit]
CC(C)C(=O)Nc1ccc2c3c(cccc13)CC2 | 35.5 µM [rising, single point] | 
CCN(CC)C(=O)Oc1ccc(Br)cc1C(=O)Nc1ccc(F)c(Cl)c1 | 7.08 µM [falling, partial curve, poor fit] | 
COc1cccc(NC(=O)CSC2=C(C#N)C(c3ccco3)C3=C(CCCC3=O)N2)c1 (configuration not stated) | 20.6 µM [falling, single point] | 
O=[N+]([O-])c1cccc(NC(=S)Nc2nc(-c3ccccc3Cl)cs2)c1 | 35.5 µM [falling, single point] | 
CCCCNc1oc(-c2cccs2)nc1S(=O)(=O)c1ccccc1 | 4.11 µM [falling, partial curve, poor fit] | 20.6 µM [rising, partial curve, poor fit]
Cc1ccccc1OCC(=O)Nc1cccc(S(=O)(=O)NC2=NCCCCC2)c1 | 20.6 µM [falling, single point] | 
CC(C)CC(=O)NCc1ccc(F)cc1 | 20 µM [falling, partial curve, poor fit] | 
COC(=O)c1sc(NC(=O)COc2cccc3ccccc23)nc1C | 3.16 µM [falling, partial curve] | 
COc1ccc2cc(C(=O)C3CCCN(C(=O)CCc4cnn(C)c4)C3)ccc2c1 (configuration not stated) | 2.82 µM [rising, full curve] | 
Cc1ccc(NC(=O)CSc2ncccn2)cc1F | 4.47 µM [rising, full curve, poor fit] | 
N#Cc1c(C(F)(F)F)cc(-c2ccc(Cl)cc2)nc1SCC(=O)O | 11.2 µM [falling, partial curve, poor fit] | 
COc1ccc(-c2nn(-c3ccccc3)cc2/C=C/C(=O)O)cc1[N+](=O)[O-] | 3.55 µM [falling, single point] | 12.6 µM [falling, partial curve]

SMILES | AC50 [1] | AC50 [2]
CCNC(=O)COC(=O)Cc1ccc(Cl)cc1Cl | 11.2 µM [rising, partial curve, poor fit] | 
CCCC(=O)O[C@]1(C(=O)CO)CC[C@H]2[C@@H]3CCC4=CC(=O)CC[C@]4(C)[C@H]3[C@@H](O)C[C@@]21C | 0.326 µM [rising, full curve, poor fit] | 0.366 µM [falling, partial curve, poor fit]
CCCCOc1ccc(C2C3CN(C(=O)OCC)CC=C3C(C#N)=C(N)C2(C#N)C#N)cc1OC (configuration not stated) | 14.6 µM [falling, single point] | 
CCOc1ccc(C(C)=O)cc1N1C(=O)C2C3C=CC(C3)C2C1=O (configuration not stated) | 5.17 µM [rising, full curve, poor fit] | 
COc1ccc(NC(=O)COC(=O)CNC(=O)C2CCCCC2)cc1OC | 20.6 µM [rising, single point] | 
Cc1nnc(N2C(=O)C(O)=C(C(=O)c3ccco3)C2c2cccc3ccccc23)s1 (configuration not stated) | 6.31 µM [rising, partial curve, poor fit] | 
CCOC(=O)c1ccc2c(c1)nc(COc1ccccc1C#N)n2CC | 0.00517 µM [rising, full curve, poor fit] | 
Cc1cc2nc(C)n(CCCNC(=O)Nc3cccc4ccccc34)c2cc1C | 29.1 µM [falling, single point] | 
COc1ccc(/C=C/C2=NN(C)C(=O)CC2)cc1 | 17.8 µM [falling, single point] | 
COc1ccc2[nH]c(=O)c(CNc3ccccc3OC)cc2c1 | 14.1 µM [falling, partial curve, poor fit] | 
CCC1=NN2C(=N)/C(=C/c3cc(C)n(Cc4ccccc4)c3C)C(=O)N=C2S1 | 15.8 µM [rising, partial curve, poor fit] | 
Cc1cc2sc3ccccc3c(=O)c2c(C)c1O | 10 µM [rising, partial curve, poor fit] | 
Cc1ccc(-c2nnc(NCc3ccccc3)c3ccccc23)cc1 | 14.6 µM [rising, partial curve] | 
Cc1nc(NN)c2c3c(sc2n1)COC(C)(C)C3 | 3.98 µM [rising, full curve, poor fit] | 
Cc1cc(C)nc(N/N=C/c2ccccc2OCc2ccc(Br)cc2)n1 | 1.84 µM [rising, partial curve, poor fit] | 
O=C(/C=C/c1ccccc1Cl)Nc1ccccc1 | 11.2 µM [falling, partial curve] | 
C[C@@H]1COC(=O)[C@H](CC(=O)OC(C)(C)C)C/C=C\C[C@@H](CC(=O)NCCO)C(=O)N1 | 20.6 µM [rising, single point] | 
Cn1c(=O)n(C)c2cc([N+](=O)[O-])c(N3CCN(S(=O)(=O)c4ccccc4)CC3)cc21 | 29.1 µM [rising, single point] | 
COc1ccc(S(=O)(=O)N2CCSC2C)cc1C (configuration not stated) | 11.2 µM [rising, partial curve] | 
O=C(N/N=C/c1ccco1)c1cc(-c2ccncc2)nc2ccccc12 | 12.6 µM [rising, partial curve] | 15.8 µM [falling, single point]
CN(C(=O)COC(=O)CNC(=O)c1ccccc1Cl)c1ccccc1 | 22.4 µM [rising, single point] | 

Looked up one by one from the entries so far:
SMILES | AC50 [1] | AC50 [2]
COc1ccc(NS(=O)(=O)c2ccc(NS(=O)(=O)c3ccc(SC)cc3)cc2)c(OC)c1 | 29.1 µM [falling, single point] | 
CC(=O)NCCSC(=O)c1ccc(F)cc1 | 23.1 µM [falling, single point] | 
CC(C)C(=O)Nc1ccc2c3c(cccc13)CC2 | 35.5 µM [rising, single point] | 
O=C(/C=C/c1ccccc1Cl)Nc1ccccc1 | 11.2 µM [falling, partial curve] | 

A stretch from the list above, for reference:
SMILES | AC50 [1] | AC50 [2]
Cn1c(=O)n(C)c2cc([N+](=O)[O-])c(N3CCN(S(=O)(=O)c4ccccc4)CC3)cc21 | 29.1 µM [rising, single point] | 
COc1ccc(S(=O)(=O)N2CCSC2C)cc1C (configuration not stated) | 11.2 µM [rising, partial curve] | 

More records follow:

SMILES | AC50 [1] | AC50 [2]
CC1CCC/C(=N\NS(=O)(=O)c2ccccc2)C1 (configuration not stated) | 6.31 µM [rising, partial curve, poor fit] | 6.31 µM [falling, single point]
COc1cc(/C=C/CN2CCC(CO)(CC3CCCCO3)CC2)ccc1O (configuration not stated) | 35.5 µM [rising, single point] | 
CCCCCCCCC[n+]1cccc2c3ccccc3ccc21 | 22.4 µM [falling, single point] | 
CCC(C)NC(=O)c1cn(-c2cccc(C)n2)cn1 (configuration not stated) | 2.82 µM [falling, partial curve] | 
CC1CCN(C(=O)CSc2nc(C3CC3)nc3ccccc23)CC1 | 11.2 µM [falling, partial curve, poor fit] | 
O=C(NC1CC2CCC(C1)N2Cc1ccccc1)c1ccccc1Cl (configuration not stated) | 12.6 µM [rising, partial curve, poor fit] | 
Cc1nc2oc3c(NCc4ccccc4)ncnc3c2c2c1COC(C)(C)C2 | 2.06 µM [falling, partial curve, poor fit] | 
COc1cccc(CC2(CO)CCCN(C/C=C/c3ccccc3OC)C2)c1 (configuration not stated) | 10 µM [falling, partial curve, poor fit] | 
CCOc1ccc(S(=O)(=O)Nc2cc(Sc3ncn[nH]3)c3oc(=O)sc3c2)cc1 | 5.01 µM [rising, single point] | 
O=C(Nc1cccc2c1CCCC2)c1ccccc1Cl | 35.5 µM [rising, single point] | 
N#Cc1c(NC(=O)CCC(=O)O)sc2c1CCCCC2 | 12.6 µM [falling, partial curve] | 
N#CCCN(C(=S)NC(=O)c1cccs1)c1ccccc1F | 14.6 µM [rising, partial curve, poor fit] | 
CCN(CC)C(=O)[C@H]1C[C@H](CC(=O)NCc2cccc(C(F)(F)F)c2)C(=O)N2CCc3c([nH]c4ccc(Cl)cc34)[C@]12C | 16.4 µM [falling, partial curve, poor fit] | 
COc1ccc(S(=O)(=O)N2CCN(C(C)C(=O)Nc3ccc(C(C)C)cc3)CC2)cc1 (configuration not stated) | 13 µM [rising, partial curve, poor fit] | 
O=C1NN(c2ccccc2)C(=O)/C1=C\c1cccc(OC(=O)c2cccs2)c1 | 23.1 µM [falling, single point] | 
COc1cc(C(=O)NCCc2ccc(F)cc2)ccc1OCC(=O)N1CCOCC1 | 18.4 µM [falling, partial curve, poor fit] | 
CCOc1ncccc1C(=O)OCc1ccc(Cl)cc1 | 29.1 µM [rising, single point] | 
CSc1ccc(CCNC(=O)c2ccc(CS(=O)(=O)c3ccc(Br)cc3)o2)cc1 | 35.5 µM [falling, single point] | 
CCCOC(c1ccccc1)(c1ccc(C(F)(F)F)cc1)C(Oc1nc(C)cc(C)n1)C(=O)O (configuration not stated) | 35.5 µM [falling, single point] | 
